{"source": "paper PMC12483565", "about": "“CBFβ-SMMHC–driven leukemogenesis requires enhanced RUNX1-DNA binding affinity in mice”", "key": {"[1]": {"tested_on": "RUNX1 RHD + CBFβ-SMMHC-ΔHABD", "assay": "BLI", "settings": "with CBFβ-SMMHC-ΔHABD, affinity significantly enhanced, Kd only in figure; BLI: 20 mM Tris-HCl pH 8.0, 150 mM KCl, 1 mM EDTA, 1 mM DTT, 0.02% Tween-20, with 800 nM CBFβ or 400 nM CBFβ-SMMHC/mutant, preincubated 37 °C 30 min; recombinant protein; protein details: His (pET28a),His (pET30a); label: biotin"}, "RUNX1 RHD + CBFβ-SMMHC": {"tested_on": "RUNX1 RHD + CBFβ-SMMHC", "assay": "BLI", "settings": "400 nM CBFβ-SMMHC, affinity significantly enhanced, Kd only in figure; BLI: 20 mM Tris-HCl pH 8.0, 150 mM KCl, 1 mM EDTA, 1 mM DTT, 0.02% Tween-20, with 800 nM CBFβ or 400 nM CBFβ-SMMHC/mutant, preincubated 37 °C 30 min; recombinant protein; protein details: His (pET28a),His (pET30a); label: biotin"}}, "note": "For at least one entry, the source does not settle the construct or the ends of the probe."}
{"sequence": "AGTTGCGGTTG (double strand) [RUNX1 target DNA oligonucleotide (BLI)]", "values": [{"measurement": "binding result", "setting": "[1]", "result": "binds"}, {"measurement": "binding result", "setting": "RUNX1 RHD + CBFβ-SMMHC", "result": "binds"}]}
